Experimental data published in PubChem BioAssay AID1508600 (Functional Genomics Laboratory (NCATS/FGL), 2020).
Among all 53,000 sequences or so, about 3,700 (7%) were called active.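 The calls were made as follows: active = gene knockdowns whose robust z-score for IL-1 alpha signal is at least 2 or at most -2, so actives lie on both sides; inactive = the rest.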 Some of the results follow.

Assay: Components of the Cytosolic LPS Sensing Pathway: Gene Identification via Genome-wide siRNA Screen;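 also: robust z of the log signal after scaling to non-targeting control siRNA wells of the plate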
Conditions: RAW264.7 macrophages, IL-1a HTRF, actives lie on both sides, screened at 100 nM (by protocol), cells primed 5 h with Pam3CSK4 first
Procedure, shortened: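 RAW264.7 mouse macrophages reverse-transfected with single siRNAs (100 nM final) for 48h, primed with Pam3CSK4 for 5 hours, then transfected with LipidA for 24 hour. Supernatant IL-1a read by HTRF; values normalized to negative-control median, log-transformed robust z-scores.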

Sequence	z-score
CCUCAUCUAUCCCAUCUUUTT against Alad	inactive: -0.191
GCUGUUUAUCUAGCUGUUATT against Mmp8	inactive: 0.782
GGUCUUGAAUUUAUGGAUUTT against Stab1	inactive: 0.0147
GGUUUACCUCUAUAAGAAUTT against Tas2r106	inactive: 0.648
GGGAAAUGGCUCAUACUGGTT against 2210010C04Rik	inactive: -1.04
GCCUUUGUUAAUGUUCGCUTT against Ifi44l	inactive: 0.205
AGACAUCGUGCGAUAUUUGTT against Cdkn2a	inactive: -1.69
GCUCAGACCAUAGUUUCUATT against A930002I21Rik	inactive: 1.14
GCAUGUGAAAUCUAGAUCATT against Cks1b	inactive: -0.0851
GGAGCAGCAGAAGAUCCUUTT against Olfr47	active: 2.52
CCCUGGUAAACACCAAUAGTT against Ctnna1	inactive: 0.849
CCGAAUUUUUCAAUGGCAATT against Pzp	inactive: -0.565
GCUGCCGGAAAAGUGUCUATT against Lrrn3	inactive: 0.374
CCUUGUUAUAGACCAACCUTT against 2310034C09Rik	inactive: 0.525
GGUUUUGAGAAGAUAACUCTT against Zfp236	inactive: 0.67
GGCAUUUAGACUUUUUUGATT against Daam1	inactive: -0.399
GGAUGUUAUAAGAUUGCGUTT against Rnf170	inactive: -0.0307
GGCUAGGUAAUCACUGGGUTT against Fate1	inactive: 0.987
GGCUCGUCAGUUCUAAGUUTT against Cxcl10	inactive: 0.54
GCUGUGAUGUUCAUUGAUATT against Oas2	inactive: 0.172
CCACGAGUUGCUGUCGUCATT against Adam22	inactive: 0.564
CCCUUUCAUUUACUCGUUGTT against Olfr787	inactive: 0.617

Sequence	z-score
GGUCCAUAUGUCUUUUUUCTT against 9430097D07Rik	inactive: 0.237
GCUUGAAGCGAGACGAUACTT against Bhlhe41	inactive: -0.349
GGCUGUGAAUCUGAAGAGCTT against Chrna6	inactive: 0.241
GGACUGUCAAUACUCUUUUTT against Gpr33	inactive: -0.158
GCCGUUCCACUCUUGGUAATT against Ranbp6	inactive: 1.26
GAAGCCUCUCUAUGUGCACTT against Vmn1r5	inactive: -0.0271
GGAACAGCUGACCUACUUUTT against Ahi1	inactive: 1.08
GCUAUGCUACUGGUUGUGGTT against Olfr1351	inactive: 0.161
GGUACAAACUCUCCCUAGATT against Ube2c	inactive: -1.29
GCAGAAUCGCUUCAGUUCUTT against Tmed6	inactive: 0.49
GCGACUCCCACAUACUCAGTT against Muc19	inactive: -0.215
GGCAGCUAAGUACGUUCAUTT against Gba	inactive: 0.177
GGAGAAGUGGUAGAAACUGTT against Brd8	inactive: -1.3
GGCCAAAAAAGGGUAUAAGTT against Rad18	inactive: 0.0516
GGGACUGUACCCAGUUUAATT against Ccl27a	inactive: 1.62
GGCCUAUGUCAGCACUUUATT against Eif3f	inactive: -0.113
CCUUAUAGUGCUGAGGAAATT against Orm1	inactive: 1.65
CCUGCUUACCAAAGAAUCCTT against Klf11	inactive: -0.884
GGAAAAUGCUGUCCAGUGGTT against Rdh11	inactive: -0.858
GGUAUUGGUUUCAUCCACCTT against Impdh2	inactive: 1.93
UCUGUUUCUAACAAGUGCATT against Taar7e	inactive: 0.22
CCAAGUCUUGGAAAAUAACTT against Wfdc15a	inactive: -1.09

Sequence	z-score
CGAAAUGGACUUCAACUUCTT against Foxo6	inactive: 0.73
CCAAGGUACUACUGGGAGATT against Sval3	inactive: 0.268
GGAUGAUUACAGAUAUGAUTT against Ccdc82	inactive: 1.21
GGUCUCCUGUACAGAAAAUTT against Retreg3	inactive: -0.652
CCUUUAUUGGUGUUGGCCGTT against Apbb3	inactive: 0.501
GCUAUGGACCUCAGCAUAGTT against Inpp5e	inactive: 1.8
CCAGUCCAUUGAAUAGUUCTT against Papola	inactive: 0.329
CGCAGGAUACAGCUAUAUUTT against Elovl4	inactive: 1.37
GGAAUCAGUGGUACCAAAUTT against Sorcs1	inactive: -0.623
GGCUAUGAAGACUGGGUUUTT against Septin12	inactive: -0.204
GGUGUGUUCAGGAGUUGAUTT against Col12a1	inactive: 0.505
GGAGCUUGAUUCGAAGCCUTT against Bik	inactive: -0.364
GGUCUCUGGUAAGAAGAGCTT against Zfp276	active: 2.95
GGGCAAGUAUGGGCAGUUCTT against Ppp1ca	inactive: 0.0965
CUCGCUGCCCGGCGGCCUCTT against Sox3	inactive: 0.092
GGAUUUCAAAGUGCUUUGCTT against Kifap3	active: 3.44
GGCUAAUAUUUCCAUUGUATT against Fibin	inactive: -0.365
GGACGGUCUUGAAAAUGGATT against Creld1	inactive: -0.948
GGAAGAACAAAGAAAGAAGTT against Ccdc66	inactive: -1.13
CGUAUUCCACUGCACUUUGTT against Ugt2a3	inactive: 1.16
GGUCAUCCUCAAGAUGAAGTT against Zfp819	active: -2.82
CCCACGGACUGGCCAGUAATT against Hyi	inactive: 1.96

Sequence	z-score
GGAAGAGGCAGCUUUUGGATT against Impg2	inactive: 0.163
GGUCUGGAAAACCAGCUUATT against D630039A03Rik	inactive: 1.04
GGCCACUUCGUGUUCUUUUTT against Hoxa10	active: 2.08
GGAUGUACACAGAAGGCCATT against Sucnr1	active: 3.47
GCUGAAGGGACUCUAACCATT against Ihh	inactive: 0.715
CGGCUCGUACACAUGUGAATT against Creld2	inactive: 0.199
GGCCCUCAAAAAUAAGUUUTT against Hsd3b3	inactive: 0.554
CGGUUACAAUUCAGUGAUATT against Mapk10	inactive: -0.505
GGCUGCUUUACUGAAGUAATT against C2cd6	inactive: 1.29
GGAAUUUGAAACUUACGGCTT against Oc90	inactive: 0.379
GGUACUUCUCAUGGAUAAATT against Vps45	inactive: -0.234
GCUUGGUACUACAAUGCCUTT against Sele	inactive: 0.93
CCUCUUCUGCGCGGAUUUGTT against Ffar4	inactive: 0.708
GGUGUAUGCCAUUGAGACCTT against Metap2	inactive: -0.54
GGACAACAUUAAUGUCAAGTT against Rab3a	inactive: 1.62
GGUUCCAAGUCAAAGAGUUTT against Foxl1	inactive: -0.47
GGGCUUUUCAGACUGUUUGTT against Nrn1	inactive: -0.232
GGAAAGUUGUAUUUGAUGUTT against Nudt7	inactive: -0.887
CCUAGUCCUGAUUUAUCAGTT against Ddx39b	active: -2.02
GGAGUGCUUGAAGUUAUUATT against Zw10	inactive: -0.312
GGAACCUCUUGGACAAAGATT against Cpne5	active: 2.17
GGUGGCAUACACAUUUGAUTT against Mvd	inactive: -0.55

Looked up above:
Value of CGGCUCGUACACAUGUGAATT against Creld2 under z-score: inactive: 0.199
Value of GGUGUAUGCCAUUGAGACCTT against Metap2 under z-score: inactive: -0.54
Value of GGUGGCAUACACAUUUGAUTT against Mvd under z-score: inactive: -0.55
Value of CCUCUUCUGCGCGGAUUUGTT against Ffar4 under z-score: inactive: 0.708

The list continues:

Sequence	z-score
CCCAGCUUUUCAACUUGCUTT against Tmc4	inactive: -1.19
GGUGAAGAGCUUCUUGAUCTT against Zfyve27	inactive: -0.362
CCUUCACCUGGCUAUUAGATT against Kif12	inactive: -0.14
CCAAAAGCAGCACAUUUCATT against Ticrr	inactive: 1.18
GCAAUUAGUGGUUACAAGUTT against Corin	inactive: 0.339
GCUCUACAGUAGAACAAACTT against Efcab5	inactive: 1.18
GGAAGAAAACAUGGAAGAATT against Usp47	inactive: 0.392
GGAAGUCUUGGAUUACAGUTT against Srpr	inactive: 0.401
GGGAAAUUGUUCGUGACAUTT against Actg1	inactive: -1.2
GCCGGGAUUUCGUUUUCUUTT against Gatad2a	inactive: 1.57
CGCAAGAGGGAUGAAGGUATT against Pax5	inactive: -0.0351
CGAGGAAGAGAAUUUCUAUTT against Myc	inactive: -0.209
GGGUCUGGAAGAUUUCAAATT against H1f7	inactive: -1.42
UUAGCCACUCAUUGUUCCATT against Olfr1303	inactive: -0.133
GGAGACGUGUCUGAAAGACTT against Glp2r	inactive: -0.557
GCUUGUAACCUAGCAGCUGTT against Tmem125	inactive: -0.562
GGUUUUUUGUAGCAAACAGTT against Phc2	active: -2.7
GGACUGUGUGUGCAAAGGUTT against Mt3	inactive: -0.176
GGAUGAGAAUAUUGAAAGATT against 4932415M13Rik	inactive: -0.225
